PubChem BioAssay AID1159578, Peter MacCallum Cancer Centre – 2015
Shown is one part, drawn at random, of about 18,000 reagents. About 1,030 of all reagents (5.7%) were called active. 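Inactive calls also include pools with fewer than 3300 nuclei, whose migration was not assessed.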 Raw values vary from plate to plate and are shown uncorrected. Entries without a mark were called inactive. Not all columns of the deposit are shown.

Assay: 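Knock-downs that alter how fast lymphatic endothelial cells migrate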 (primary screen)
Cell system: human lymphatic endothelial cells
Reagents: siRNA pool against human genes, 40 nM
Timing: 48 h after transfection
Measurement: 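Cells stained with dye and imaged after a scratch; covered wound area and nuclei counted, duplicates averaged, migration set against mock wells and turned into a robust z-score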
Scale: migration robust z-score: higher = faster migration into the scratch; nuclei per well: higher = more cells in the well
Rule for the call: 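Migration changed when robust z exceeds 2 or falls below -2 and mean nuclei number is at least 3300; otherwise not called changed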
Calls: active = migration changed; inactive = no migration change, or too few cells

WNT2B (Wnt family member 2B) [SID255353143]: migration robust z-score = -0.54; nuclei per well, duplicate mean = 6048
ZSCAN5B (zinc finger and SCAN domain containing 5B) [SID255365146]: migration robust z-score = -0.2; nuclei per well, duplicate mean = 6443
STAB2 (stabilin 2) [SID255358693]: migration robust z-score = 0.01; nuclei per well, duplicate mean = 5010
PDXP (pyridoxal phosphatase) [SID255359235]: migration robust z-score = 1.04; nuclei per well, duplicate mean = 5858
BLOC1S5 (biogenesis of lysosomal organelles complex 1 subunit 5) [SID255359769]: migration robust z-score = -0.4; nuclei per well, duplicate mean = 4042
SLC25A43 [SID255364128]: migration robust z-score = -0.75; nuclei per well, duplicate mean = 5592
C6 (complement C6) [SID255348615]: migration robust z-score = 0.7; nuclei per well, duplicate mean = 5824
GSTT1 (glutathione S-transferase theta 1) [SID255350079]: migration robust z-score = 0.86; nuclei per well, duplicate mean = 7544
ASCC1 (activating signal cointegrator 1 complex subunit 1) [SID255357403]: migration robust z-score = 1.73; nuclei per well, duplicate mean = 5718
SPAST (spastin) [SID255352591]: migration robust z-score = 0.94; nuclei per well, duplicate mean = 5429
VAPB (VAMP associated protein B and C) [SID255354122]: migration robust z-score = 0.82; nuclei per well, duplicate mean = 6862
ZNG1C (Zn regulated GTPase metalloprotein activator 1C) [SID255365985]: migration robust z-score = 0.74; nuclei per well, duplicate mean = 6265
NEBL (nebulette) [SID255355155]: migration robust z-score = -0.36; nuclei per well, duplicate mean = 6060
NEBL (nebulette) [SID255365445]: migration robust z-score = 0.5; nuclei per well, duplicate mean = 7248
SMCO3 (single-pass membrane protein with coiled-coil domains 3) [SID255365891]: migration robust z-score = -1.15; nuclei per well, duplicate mean = 5799
CCR5 (C-C motif chemokine receptor 5) [SID255348978]: migration robust z-score = -0.99; nuclei per well, duplicate mean = 5034
CTSK (cathepsin K) [SID255349174]: migration robust z-score = -0.1; nuclei per well, duplicate mean = 5472
TNFRSF13B (TNF receptor superfamily member 13B) [SID255356277]: migration robust z-score = -4.21; nuclei per well, duplicate mean = 2509
LRFN5 [SID255363254]: migration robust z-score = -0.26; nuclei per well, duplicate mean = 6726
SLC4A4 [SID255353726]: migration robust z-score = -1.27; nuclei per well, duplicate mean = 5960
MANSC1 (MANSC domain containing 1) [SID255358127]: migration robust z-score = -0.84; nuclei per well, duplicate mean = 4964
